## Screening data, single-dose tests

Sequences of proteins named here, by UniProt entry; tags and fusion partners are left off. Residues count along the entry.
UniProt Q8IDJ8, 1-583: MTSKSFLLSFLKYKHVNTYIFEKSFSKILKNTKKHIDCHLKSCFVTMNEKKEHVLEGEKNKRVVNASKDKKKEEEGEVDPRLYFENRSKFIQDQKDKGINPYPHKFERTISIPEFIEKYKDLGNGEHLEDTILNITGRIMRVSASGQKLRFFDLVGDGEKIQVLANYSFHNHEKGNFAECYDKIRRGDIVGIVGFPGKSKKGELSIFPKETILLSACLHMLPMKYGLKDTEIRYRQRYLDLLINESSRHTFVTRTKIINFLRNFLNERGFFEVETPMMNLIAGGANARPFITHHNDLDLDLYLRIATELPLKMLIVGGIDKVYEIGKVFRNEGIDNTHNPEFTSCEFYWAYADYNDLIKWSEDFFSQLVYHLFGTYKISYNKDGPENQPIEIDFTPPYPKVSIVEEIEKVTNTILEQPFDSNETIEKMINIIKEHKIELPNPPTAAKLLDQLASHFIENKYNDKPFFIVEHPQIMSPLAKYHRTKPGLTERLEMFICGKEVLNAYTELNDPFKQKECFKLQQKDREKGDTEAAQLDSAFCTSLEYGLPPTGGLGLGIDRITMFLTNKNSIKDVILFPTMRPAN

Measurements from “University of Dundee, Small-Polar-MMV Screening Library” (2021), ChEMBL document CHEMBL3988442.

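Lysine-tRNA ligase, Plasmodium falciparum 3D7 (UniProt Q8IDJ8). Enzyme assay of the cytosolic lysyl-tRNA synthetase in 384-well plates, read by luminescence. Tested at 30 µM. Direction is inferred from only a few compounds that gave an IC50; most scored high, so higher reads as stronger inhibition. About 69,000 compounds were tested under these conditions; 0.071% (about 49) showed 50% or more at least once.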

Results are given as percent effect.
The record does not define 0% and 100%; most values in the screen are far below 50% and negative numbers occur (in some assays of this library far below -100).
The compounds are a random part of those screened.

{"compound": "O=C(c1ccco1)N1CCO[C@@H]2CNC[C@@H]21", "Percent Effect": 1.001}
{"compound": "CSc1ncnc(NCc2ccccc2F)c1C#N", "Percent Effect": -0.182}
{"compound": "NC(=O)c1cn[nH]c1C1CCCN1C(=O)c1cnccn1", "stereo": "stereo not shown", "Percent Effect": 1.22}
{"compound": "Cc1cccc(C(=O)N2CCn3c(CN4CCN(C)CC4)cnc3C2)n1", "Percent Effect": 0.5805}
{"compound": "COCCn1ccnc1C1CCCN(c2ncnc3c2CCC3)C1", "stereo": "stereo not shown", "Percent Effect": 1.52}
{"compound": "COc1cccc(N2CCN(C(=O)c3noc4c3CCCC4)CC2)c1", "Percent Effect": 3.005}
{"compound": "O=C(CSc1ccccn1)NCc1ccc2c(c1)CCC(=O)N2", "Percent Effect": -1.544}
{"compound": "Cn1cc2c(n1)C(CNCC1CCOCC1)OCC2", "stereo": "stereo not shown", "Percent Effect": 1.886}
{"compound": "Cc1ncc(CN2CCOC(c3ccc(-c4cnn(C)c4)cn3)C2)s1", "stereo": "stereo not shown", "Percent Effect": 1.528}
{"compound": "Cn1cc(CCNC(=O)N2CCCC(c3nncn3C)C2)cn1", "stereo": "stereo not shown", "Percent Effect": 0.7331}
{"compound": "COc1ccc(F)cc1C(=O)N1C[C@H]2CC[C@@H]1CN(c1ncccn1)C2", "Percent Effect": 6.729}
{"compound": "CC(=O)c1cc(CN2C[C@@H](N(C)C)[C@H](C(C)C)C2)cs1", "Percent Effect": 4.721}
{"compound": "COCc1nc(NC(C)Cc2cc(C)n[nH]2)c2cnn(C)c2n1", "stereo": "stereo not shown", "Percent Effect": 8.609}
{"compound": "CCn1c(C2CCCNC2)nn(CCn2cncn2)c1=O", "stereo": "stereo not shown", "Percent Effect": 3.106}
{"compound": "CNC(=O)[C@@H](c1ccccc1F)N1CCC[C@H]1C(=O)NC1CCOCC1", "Percent Effect": 7.117}
{"compound": "Cc1cc(C)cc(CN2CCN(C(=O)CCc3n[nH]c(C)n3)CC2=O)c1", "Percent Effect": -1.327}
{"compound": "COc1c(C)cnc(CN(C)C(=O)Nc2ccc3c(c2)CCO3)c1C", "Percent Effect": 4.019}
{"compound": "CC[C@H]1CN2CC[C@H]1C[C@@H]2CNCc1ccc(OC)cc1", "Percent Effect": 7.571}
{"compound": "Cn1nccc1C(=O)N1CCOC(Cc2cccnc2)C1", "stereo": "stereo not shown", "Percent Effect": 0.2264}
{"compound": "Cn1cc(C[C@H]2[C@@H](OCC3CC3)CCN2C(=O)c2ccc[nH]2)cn1", "Percent Effect": 1.305}
{"compound": "CCN(C(=O)CN1CCC(c2ccccc2)C1)C1CC1", "stereo": "stereo not shown", "Percent Effect": -0.2254}
{"compound": "N#Cc1cnc2ccccc2c1N1CCNCC1", "Percent Effect": 4.328}
{"compound": "COC(C(=O)N1CCN(c2cccc(Cl)c2)C(=O)C1)c1ccccc1", "stereo": "stereo not shown", "Percent Effect": 0.5319}
{"compound": "COc1cccc(N2CC3(CCN(C(=O)NC(C)C)C3)CC2=O)c1", "stereo": "stereo not shown", "Percent Effect": 7.965}
{"compound": "CSCC(=O)N[C@H]1CC[C@H](Nc2nccc(-c3cccnc3)n2)C1", "Percent Effect": -2.1}
{"compound": "c1cc(-c2cn3nccc3nc2C2CCCCC2)nc(N2CCCC2)n1", "Percent Effect": 3.895}
{"compound": "CN(CCC#N)C(=O)CCOc1cccc(F)c1", "Percent Effect": -4.469}
{"compound": "Cc1cc(-c2nc(-c3ccccn3)nn2C2CCN(C)CC2)nc(C)n1", "Percent Effect": 1.059}
{"compound": "O=C(NC1CCCc2nc(N3CCOCC3)ncc21)C1CCCCC1", "stereo": "stereo not shown", "Percent Effect": -2.916}
{"compound": "CC(C)n1ccc(C(=O)NCC(O)c2c(Cl)cccc2Cl)n1", "stereo": "stereo not shown", "Percent Effect": -1.925}
{"compound": "COCc1nc(C2CCN(Cc3nccn3C)CC2)no1", "Percent Effect": 1.452}
{"compound": "CC(Cn1cncn1)NC1CCN(Cc2cccc(O)c2)CC1", "stereo": "stereo not shown", "Percent Effect": 1.401}
{"compound": "CN(Cc1ccccc1OC(F)(F)F)C(=O)C1CCCN(C(N)=O)C1", "stereo": "stereo not shown", "Percent Effect": 5.323}
{"compound": "Cc1ccc(CN2CCO[C@@H]3[C@@H](OCc4cccnc4)CC[C@@H]32)o1", "Percent Effect": 3.922}
{"compound": "O=C(O)c1c[nH]c2cc(NS(=O)(=O)c3ccc(Cl)cc3F)ccc12", "Percent Effect": 0.5671}
{"compound": "c1coc(CN2C[C@@H]3CCCO[C@@H]3[C@H](N3CCCC3)C2)c1", "Percent Effect": 0.08163}
{"compound": "Cc1ncsc1CN1C[C@@H]2COC[C@]2(C(=O)NC(C)C)C1", "Percent Effect": 0.3839}
{"compound": "CN(C)C(=O)[C@H]1CCS(=O)(=O)[C@@H]2CN(c3ncc(F)cn3)C[C@H]12", "Percent Effect": -3.446}
{"compound": "CS(=O)(=O)N1CCC(N2CCCC2c2ccccn2)CC1", "stereo": "stereo not shown", "Percent Effect": 1.067}
{"compound": "CN1CCC2(CCN(CC3CC3)CC2)C1=O", "Percent Effect": 2.005}
{"compound": "Cc1ncc(CN)c(-c2cn(C)c3ccccc23)n1", "Percent Effect": -1.605}

For reference, 4 entries once more:

compound	Percent Effect
CN(CCC#N)C(=O)CCOc1cccc(F)c1	-4.469
COCc1nc(C2CCN(Cc3nccn3C)CC2)no1	1.452
Cc1cc(-c2nc(-c3ccccn3)nn2C2CCN(C)CC2)nc(C)n1	1.059
N#Cc1cnc2ccccc2c1N1CCNCC1	4.328